The assay deals with T1, RCC1 (human, wild type, free protein) (human), P18754.
T1 chain: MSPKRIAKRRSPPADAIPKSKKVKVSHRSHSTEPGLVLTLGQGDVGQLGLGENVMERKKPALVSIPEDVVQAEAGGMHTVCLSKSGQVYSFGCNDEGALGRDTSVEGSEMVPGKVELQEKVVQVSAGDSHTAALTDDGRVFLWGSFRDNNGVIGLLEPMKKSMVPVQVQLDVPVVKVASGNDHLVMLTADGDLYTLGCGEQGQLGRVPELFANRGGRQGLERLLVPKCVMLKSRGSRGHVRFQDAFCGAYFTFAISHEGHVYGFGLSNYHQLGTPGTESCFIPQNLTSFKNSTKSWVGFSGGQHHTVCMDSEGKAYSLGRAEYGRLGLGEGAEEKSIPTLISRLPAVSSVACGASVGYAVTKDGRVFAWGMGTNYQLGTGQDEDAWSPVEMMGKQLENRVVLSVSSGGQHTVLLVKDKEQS
Kind of assay: SAXS; human RCC1 alone in GF buffer, 2.5–5.0 mg ml^-1; both purified. The conditions noted are these: remark: other sources report otherwise.

No constants are given. Whether binding was seen depends on the method and setting.

B1: RCC1 (human, wild type, free protein), P18754 1-421 (protein)
chain: T1 chain
Turning to B1, the binding result is “no binding (tested: 2.5 and 5.0 mg ml^−1)”.

The values are drawn from PMC5645467.
